Test results published in article PMC5356539.

Amino acid sequences for entries named in this document (tags omitted). Residues count along the entry.
UniProt O14786, 22-640: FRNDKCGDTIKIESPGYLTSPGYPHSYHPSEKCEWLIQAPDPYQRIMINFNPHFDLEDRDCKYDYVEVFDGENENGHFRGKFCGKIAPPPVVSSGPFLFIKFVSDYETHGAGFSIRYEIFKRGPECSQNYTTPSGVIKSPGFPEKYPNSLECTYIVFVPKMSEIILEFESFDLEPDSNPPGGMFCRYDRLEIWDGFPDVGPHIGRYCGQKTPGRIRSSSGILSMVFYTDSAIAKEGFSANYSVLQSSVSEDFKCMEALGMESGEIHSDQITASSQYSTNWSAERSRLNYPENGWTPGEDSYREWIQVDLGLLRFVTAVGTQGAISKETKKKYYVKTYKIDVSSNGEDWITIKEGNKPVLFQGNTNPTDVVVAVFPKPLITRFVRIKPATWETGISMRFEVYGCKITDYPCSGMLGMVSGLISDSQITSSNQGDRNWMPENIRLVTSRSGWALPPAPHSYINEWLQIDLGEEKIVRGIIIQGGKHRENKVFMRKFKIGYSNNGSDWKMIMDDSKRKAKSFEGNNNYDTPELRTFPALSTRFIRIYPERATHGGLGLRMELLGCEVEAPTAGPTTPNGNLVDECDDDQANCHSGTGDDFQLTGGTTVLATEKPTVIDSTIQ

Target: sNRP1 (human) (UniProt O14786)
Assay: plate binding assay / competition
Conditions: competitor RNA stated to bind NRP1, NRP1 form not stated; 3'-biotinylated cytidine (bis)phosphate ligated when labelled; recombinant protein; residues 22-640; label: 3' biotin or unlabeled

## CCUGGUUUUUAAGGAGUGUCGCCAGAGUGCCGCGAAUGAAAAA [control RNA from Pierce kit (competitor RNA)]
  binding result: binds

The exact form of at least one protein or probe is not confirmed. At least one verdict rests on a figure or table, not on a statement of the authors.
